Measured values: PMC10411580
Where a chain is given by its changes, count along the chain named. Numbers in names are those of the source. These are yes or no findings as the source states them, for the method shown. In cells and extracts the contact can be indirect. Some binding calls cover weakened binding; strength is not graded here. Tags and fused reporters may be left off the sequences shown.

T1: Rrp45-TAP (S. cerevisiae RNA exosome core subunit Rrp45, C-terminally tandem affinity purification tagged) (S. cerevisiae) (UniProt Q05636)
T1 sequence: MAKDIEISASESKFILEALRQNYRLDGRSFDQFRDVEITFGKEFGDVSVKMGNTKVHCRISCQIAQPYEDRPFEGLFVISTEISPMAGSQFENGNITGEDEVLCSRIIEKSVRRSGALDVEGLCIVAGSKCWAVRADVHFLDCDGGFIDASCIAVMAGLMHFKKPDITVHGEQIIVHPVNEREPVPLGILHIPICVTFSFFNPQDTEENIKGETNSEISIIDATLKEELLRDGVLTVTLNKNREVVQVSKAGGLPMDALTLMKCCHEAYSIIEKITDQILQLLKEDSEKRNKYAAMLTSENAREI

B1: Rrp4-2xMyc (wild-type S. cerevisiae RNA exosome cap subunit Rrp4, Myc-tagged) (protein, UniProt P38792 1-359)
chain: MSEVITITKRNGAFQNSSNLSYNNTGISDDENDEEDIYMHDVNSASKSESDSQIVTPGELVTDDPIWMRGHGTYFLDNMTYSSVAGTVSRVNRLLSVIPLKGRYAPETGDHVVGRIAEVGNKRWKVDIGGKQHAVLMLGSVNLPGGILRRKSESDELQMRSFLKEGDLLNAEVQSLFQDGSASLHTRSLKYGKLRNGMFCQVPSSLIVRAKNHTHNLPGNITVVLGVNGYIWLRKTSQMDLARDTPSANNSSSIKSTGPTGAVSLNPSITRLEEESSWQIYSDENDPSISNNIRQAICRYANVIKALAFCEIGITQQRIVSAYEASMVYSNVGELIEKNVMESIGSDILTAEKMRGNGN
B2: Rrp4 M68T-2xMyc (S. cerevisiae Rrp4 variant that models human EXOSC2 p.Met40Thr, Myc-tagged) (protein, UniProt P38792 1-359)
chain: B1 chain with M68T
B3: Rrp4 G226D-2xMyc (S. cerevisiae Rrp4 variant that models the SHRF-linked human EXOSC2 p.Gly198Asp, Myc-tagged) (protein, UniProt P38792 1-359)
chain: B1 chain with G226D

Target: T1, Rrp45-TAP (S. cerevisiae RNA exosome core subunit Rrp45, C-terminally tandem affinity purification tagged) (S. cerevisiae)
Assay: co-IP; Rrp45-TAP precipitated on IgG Sepharose beads from 1 mg cleared lysate of RRP45-TAP cells grown at 30°C that hold endogenous wild-type Rrp4 and express Myc-tagged Rrp4 variants from plasmids; IPP150 buffer (10 mM Tris-HCl pH 8, 150 mM NaCl, 0.1% NP40), 4°C overnight; anti-Myc immunoblot

Question: B1 was tested. Which binding did it give?
Answer: Its binding is “binds”.

Question: How did the binding turn out when B2 was run?
Answer: The binding was “binds”.

Question: For B3, which binding is on record?
Answer: The binding was “no binding”.
